Read-outs that look alike come from different tables or passages of the source. No constants are given. Whether binding was seen depends on the method and setting. In cells and extracts the contact can be indirect. Binding can be weak; no strength is given. For some of these results: Tags and fused reporters may be left off the sequences shown. Values belong to the molecule of their own block, whether it stands above or below them.
Experiments:
[1] = target: Med19ΔHIM-VC (internally deleted Med19 fused to the C-terminal fragment of Venus) (Drosophila melanogaster) (UniProt Q9VVL6); assay: co-IP; transfected Drosophila S2 cells; extracts in IP buffer (50 mM TrisHCl pH 8, 150 mM NaCl, 0.5% NP40, 1 mM EGTA), 4°C, immunoprecipitated with mouse anti-GFP (VC tag) and G-protein Sepharose; Western blots with anti-Med1, anti-Med19, anti-HA
[2] = target: T1, Med19-VC (full-length Med19 fused to the C-terminal fragment of Venus) (Drosophila melanogaster) (UniProt Q9VVL6); assay: split reporter; BiFC with Venus VN and VC fusions co-expressed from UAS constructs in Drosophila embryos under engrailed-Gal4, Ubx-Gal4 or abdA-Gal4 control
T1 sequence: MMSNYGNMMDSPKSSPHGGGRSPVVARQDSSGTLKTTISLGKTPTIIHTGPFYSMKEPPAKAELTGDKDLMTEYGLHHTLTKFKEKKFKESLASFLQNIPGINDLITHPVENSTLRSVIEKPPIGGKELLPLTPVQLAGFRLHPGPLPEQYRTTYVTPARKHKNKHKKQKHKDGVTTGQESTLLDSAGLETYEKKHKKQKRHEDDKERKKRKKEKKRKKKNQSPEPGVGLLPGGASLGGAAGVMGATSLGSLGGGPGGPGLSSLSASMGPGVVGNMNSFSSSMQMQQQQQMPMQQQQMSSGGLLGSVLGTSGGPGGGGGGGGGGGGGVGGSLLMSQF

By UniProt entry, the sequences of proteins in these tests, tags left out.
UniProt P83949: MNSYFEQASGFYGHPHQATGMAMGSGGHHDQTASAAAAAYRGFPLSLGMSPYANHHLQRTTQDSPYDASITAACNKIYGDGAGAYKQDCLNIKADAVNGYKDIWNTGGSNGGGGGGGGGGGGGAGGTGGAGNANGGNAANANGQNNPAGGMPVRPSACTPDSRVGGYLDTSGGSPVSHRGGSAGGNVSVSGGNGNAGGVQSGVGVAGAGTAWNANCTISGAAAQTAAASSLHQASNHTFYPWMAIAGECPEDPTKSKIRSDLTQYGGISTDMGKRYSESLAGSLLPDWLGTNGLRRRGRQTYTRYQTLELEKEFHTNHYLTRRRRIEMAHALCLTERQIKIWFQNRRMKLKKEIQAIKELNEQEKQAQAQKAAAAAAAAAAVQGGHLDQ

[3] = target: T1, Med19-VC (full-length Med19 fused to the C-terminal fragment of Venus) (Drosophila melanogaster); assay: split reporter; BiFC with Venus VN and VC fusions co-expressed from UAS constructs in wing imaginal discs of third-instar larvae under dpp-Gal4 control; fixed discs, confocal, at least 10 discs per genotype
[4] = target: Med19ΔHIM-VC (internally deleted Med19 fused to the C-terminal fragment of Venus) (Drosophila melanogaster) (UniProt Q9VVL6); assay: co-IP; transfected Drosophila S2 cells; extracts in IP buffer (50 mM TrisHCl pH 8, 150 mM NaCl, 0.5% NP40, 1 mM EGTA), 4°C, immunoprecipitated with mouse anti-GFP (VC tag) and G-protein Sepharose; Western blots with anti-Med1, anti-Med19, anti-HA; remark: listed apart in the source
[5] = target: GST-HDAntp (GST fused to the Antp homeodomain) (Drosophila melanogaster); assay: pull-down; 35S-labelled Med19 (full length or deleted versions) probing immobilised GST-Hox fusions or GST-HDAntp; standard conditions, essentially as in ref. 68 (Figures 1A, 5A); only the target purified

binding [3]: binds | binding [2]: binds
Molecule: VN-HDUbx (Ubx homeodomain fused to the N-terminal fragment of Venus) (Drosophila melanogaster) (domain or fragment)

binding [4]: binds
B1: endogenous Med1 (three isoforms) (protein, UniProt Q9VP05 1-1475)
chain: MSGSNAKSSGTGFGSHIPSIEEKNKQIQQETMMEKLRAKYRNKPKSYEEIKKSVRMYFIEKHYPLDPLCKATLQSALDKLQHYIKVTSRHGLVERLESLSRQLGLKFMEDQQLLFISTDMFYVEILLDAAGSLSDVKVHHECKIEQQSSELVACLKSGDFADFTVQLEGLSSIYQLNAEPKVKKKAFVALQAMETDIQSLYQLHLQGHSGDSYSLMTSSSVGLVLPRRGGHPMRLTYFCPPLHLPEGDPKLASGDFTIDQVMRSSYGLSATINLEGSSANKLQTLPTVTLVRDAQTGLEVPTYAQLNQNNSLLMPATFVLRLNKPMPVCLESLKALGLPGLDSVATPPGPPTTVLNLIVQTASKQAIKNTQRGLYVNLPKETHCYFFTDNRKLQGTLVSSLPFTEPAQVPRIVAFLKKQALFYTLLASCVREQQKQYNDMDSTVILEVTAVSFNQITVELQHPYEESLATVDFLLEDGQPTCSVYCLTNEYELLSQKLTRTARKVVSIPMVIYKLLKCWDEEHEFKLHGAIGPGSGSGAIGGGGMSGGGPVSGVGNNFSQFSMDTPTPSDGSLPGGGFANINNLKMDAKSRSLADAFAASTSAAAAIAGLINLKRETDPQSGSSASGTTVSGSSSSSGSAKTSDHDIADKYKNIWKDKTPNLKHCVSITPIPGDGKSGSAGGVSGVEVQRTGGIEIIPLNAQAAIAGGGVTASSSATPTTITITPITGKDPSKDSTKKSTAASAGVGVAAKRPHESSTSSSSTSGCSGSGSSMSSSASSGSSDTQKEKKRKKKRDDSPMGPPEKIYSRQNSPAGGADASATGGVVRKFSSPSSSPKAGGGGQGLMAGVPTARPSPKHSPVYSSPKHNTASNSPKSPFGTHSPKHGSSGKPSMSTLKSAATAATILSPKGDKSSSAVGNTSSGPSASSGSSGATGLVRSFASVGAPPPPPPIPPLASSSGSISSSQSLKKEKTSSASGSSSTSSSATAGVASGGGISPASVAAAVAALKSSQQQMKSVASLSHLAAGGGLGSYAAPSGAGASGAAAVVVGAGAGAGAGASGLELSALRKGMAGGAVSLMTSTAALAPTIPAPTTTVAAGSAASLVSPVSAVVGQGQETAGAAAAATLATATILQQQPQPGAAPTSSCLTTSGGSSDSAGSINPAGASTEYMVKPSSQEGLKLTINKTGSSKSSGTGSGSSSSSGLQAKAKSSSSGATSFAGSTGSTKKQHTGLKPGVNSGPASKKATAAVSSATASSSKHFFQKANSSGNLSSKLSGSGSGGGIPLTKSNSTNSFQEHNAPRRRPSMGALASGSSGGGSGQRKLGSASGGGSGSSGSVSPALSGSMSQPPPRFDHHTDMMTILQYASPTMAASMEGFIKGLHNKFQIPKLSQRGSGGNTTSGRSTPSGSSEPALAGTSSSILGPIASSTGLTEPEAKPPVPPSQSGNEGLLNLSSTAGTPSADGIDEELLASLAGE

binding [5]: binds
B3: 35S-labelled full-length Med19 (Mediator complex subunit 19) (protein, UniProt Q9VVL6 1-337)
chain: T1 sequence
modifications: 35S-labelled

More lines, now with the values behind:

Molecule: Ubx-HA (from UniProt P83949 1-389)
binding [1]: binds

Molecule: VN-HDAbdA (AbdA homeodomain fused to the N-terminal fragment of Venus) (Drosophila melanogaster) (domain or fragment)
binding [2]: binds

B2: 35S-labelled 70 a.a. HIM peptide of Med19 (160–229) (construct #7) (domain or fragment, UniProt Q9VVL6 160-229)
chain: RKHKNKHKKQKHKDGVTTGQESTLLDSAGLETYEKKHKKQKRHEDDKERKKRKKEKKRKKKNQSPEPGVG
modifications: 35S-labelled
binding [5]: binds
